Measurements as given in patent publication US11440947B2, “Peptides and combination of peptides for use in immunotherapy against various tumors” (Immatics Biotechnologies GmbH, priority 2015, dated 2022).

The substances below were run on cancer tissues compared to normal tissues (assay: Identification and relative quantitation of tumor associated peptides presented on the cell surface (HLA ligand isolation, label-free LC-MS presentation profiles)). Settings: FIG. 1E-1J; only samples where the peptide was found presented.
Design: species or system human

Substance	number of cell lines on which the peptide was found to be presented
SEQ ID NO.: 2 (SVLEKEIYSI; listed as Homo sapiens)	4
SEQ ID NO.: 84 (FLLEREQLL; listed as Homo sapiens)	3
SEQ ID NO.: 235: peptide found in CLSPN (gene looked up) (SLLNQPKAV; listed as Homo sapiens)	13
SEQ ID NO.: 243 (GLAEFQENV; listed as Homo sapiens)	3
